PubChem BioAssay AID504808, Drosophila RNAi Screening Center – 2011

Purpose: 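Fly genes required to hold E2F transcription in check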 (primary screen)
Cells: Drosophila S2 cells
Reagent: long dsRNA against Drosophila genes
Detection: 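Dual luciferase plate measurements; E2F-specific signal taken as firefly over Renilla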
Scale: E2F firefly: higher = more E2F reporter activity; Renilla normaliser: higher = more normaliser reporter signal
Hit rule: 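a knock-down counted as active when the firefly/Renilla E2F signal rose above 50%, a threshold chosen arbitrarily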
In all, the deposit lists about 21,000 reagents; below is a random part of those that have a named target and a result. In the full data, 18 (0.084%) got an active call. 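Raw counts without plate normalisation, one of two replicates; the ratio scores behind the calls were not deposited.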 A number with no mark means an inactive call. A plus sign joins genes that one reagent is predicted to hit. Not given: the amount of reagent, the time to read-out.

Cyp9b1 (Cytochrome P450 9b1) [SID104187181]: E2F firefly, rep 1 = 1.37e5; Renilla normaliser, rep 1 = 4434
CG6481 [SID104199787]: E2F firefly, rep 1 = 1.48e5; Renilla normaliser, rep 1 = 5349
Ance (Angiotensin converting enzyme) [SID104181657]: E2F firefly, rep 1 = 75519; Renilla normaliser, rep 1 = 3548
ProtA (Protamine A) [SID104183164]: E2F firefly, rep 1 = 1.12e5; Renilla normaliser, rep 1 = 4936
CG30287 [SID104183667]: E2F firefly, rep 1 = 1.14e5; Renilla normaliser, rep 1 = 4586
Osi8 (Osiris 8) [SID104192069]: E2F firefly, rep 1 = 1.35e5; Renilla normaliser, rep 1 = 6742
CG2841 [SID104197491]: E2F firefly, rep 1 = 83273; Renilla normaliser, rep 1 = 2936
CG2841 [SID104198616]: E2F firefly, rep 1 = 97457; Renilla normaliser, rep 1 = 5357
CG7907 [SID104196131]: E2F firefly, rep 1 = 1.51e5; Renilla normaliser, rep 1 = 7741
CG12715 [SID104199284]: E2F firefly, rep 1 = 1.48e5; Renilla normaliser, rep 1 = 6588
veil [SID104186684]: E2F firefly, rep 1 = 80100; Renilla normaliser, rep 1 = 3496
M1BP (Motif 1 Binding Protein) [SID104196358]: E2F firefly, rep 1 = 1.02e5 (active); Renilla normaliser, rep 1 = 3354
Btk (Bruton tyrosine kinase) [SID104181800]: E2F firefly, rep 1 = 1.47e5; Renilla normaliser, rep 1 = 5069
Btk (Bruton tyrosine kinase) [SID104182458]: E2F firefly, rep 1 = 91269; Renilla normaliser, rep 1 = 4009
Ubc2 (Ubiquitin conjugating enzyme 2) [SID104180929]: E2F firefly, rep 1 = 1.42e5; Renilla normaliser, rep 1 = 6486
Ubc2 (Ubiquitin conjugating enzyme 2) [SID104183260]: E2F firefly, rep 1 = 1.47e5; Renilla normaliser, rep 1 = 5075
l(2)34Fc (lethal (2) 34Fc) [SID104181702]: E2F firefly, rep 1 = 1.10e5; Renilla normaliser, rep 1 = 4479
exu (exuperantia) [SID104187407]: E2F firefly, rep 1 = 72601; Renilla normaliser, rep 1 = 4184
Pex14 (Peroxin 14) [SID104191546]: E2F firefly, rep 1 = 1.33e5; Renilla normaliser, rep 1 = 6565
Ahcy (Adenosylhomocysteinase) [SID104199121]: E2F firefly, rep 1 = 7678; Renilla normaliser, rep 1 = 840
Su(var)2-HP2 [SID104185996]: E2F firefly, rep 1 = 3034; Renilla normaliser, rep 1 = 217
CG33631 [SID104192555]: E2F firefly, rep 1 = 75014; Renilla normaliser, rep 1 = 3883
CG18128 [SID104184096]: E2F firefly, rep 1 = 1.09e5; Renilla normaliser, rep 1 = 4551
Cpr66D (Cuticular protein 66D) [SID104190432]: E2F firefly, rep 1 = 91369; Renilla normaliser, rep 1 = 3771
Cpr66D (Cuticular protein 66D) [SID104190438]: E2F firefly, rep 1 = 83232; Renilla normaliser, rep 1 = 3414
CG17931 + CG42446 [SID104195085]: E2F firefly, rep 1 = 1.09e5; Renilla normaliser, rep 1 = 6091
Vha26 (Vacuolar H[+]-ATPase 26kD subunit) [SID104192163]: E2F firefly, rep 1 = 74331; Renilla normaliser, rep 1 = 3196
CG30203 [SID104186482]: E2F firefly, rep 1 = 87103; Renilla normaliser, rep 1 = 3941

Quoted from the listing (3 entries):
CG33631 [SID104192555]: E2F firefly, rep 1 = 75014; Renilla normaliser, rep 1 = 3883
CG18128 [SID104184096]: E2F firefly, rep 1 = 1.09e5; Renilla normaliser, rep 1 = 4551
Cpr66D (Cuticular protein 66D) [SID104190432]: E2F firefly, rep 1 = 91369; Renilla normaliser, rep 1 = 3771
